Source: the supplement of paper PMC12067093, “Discovery and optimisation of a covalent ligand for TRIM25 and its application to targeted protein ubiquitination” (Chemical Science, 2025)
The list shows a part of the results.

Protein sequences, listed by entry. Tags and fused reporters are not part of them. Lines headed by an entry give the natural chain unless they say otherwise; changes in a name come on top.
UniProt P05771, whole entry, looked up: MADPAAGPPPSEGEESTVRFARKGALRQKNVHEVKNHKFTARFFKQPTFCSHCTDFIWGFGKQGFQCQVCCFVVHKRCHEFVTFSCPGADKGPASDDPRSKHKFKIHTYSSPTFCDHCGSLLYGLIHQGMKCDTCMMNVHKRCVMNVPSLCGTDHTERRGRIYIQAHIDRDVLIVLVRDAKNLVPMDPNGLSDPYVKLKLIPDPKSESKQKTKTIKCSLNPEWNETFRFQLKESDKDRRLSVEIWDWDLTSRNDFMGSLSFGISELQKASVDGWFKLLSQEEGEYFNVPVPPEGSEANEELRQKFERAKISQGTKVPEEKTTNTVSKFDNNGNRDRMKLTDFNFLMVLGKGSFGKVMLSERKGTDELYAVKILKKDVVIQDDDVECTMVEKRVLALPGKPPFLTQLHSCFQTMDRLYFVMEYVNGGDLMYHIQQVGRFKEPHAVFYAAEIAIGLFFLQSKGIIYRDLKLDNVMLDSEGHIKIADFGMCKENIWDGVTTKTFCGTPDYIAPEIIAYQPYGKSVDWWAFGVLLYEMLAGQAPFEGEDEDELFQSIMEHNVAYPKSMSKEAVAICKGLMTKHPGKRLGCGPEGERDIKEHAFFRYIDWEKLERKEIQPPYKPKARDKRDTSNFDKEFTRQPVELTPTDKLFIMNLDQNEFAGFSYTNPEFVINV
UniProt Q05655: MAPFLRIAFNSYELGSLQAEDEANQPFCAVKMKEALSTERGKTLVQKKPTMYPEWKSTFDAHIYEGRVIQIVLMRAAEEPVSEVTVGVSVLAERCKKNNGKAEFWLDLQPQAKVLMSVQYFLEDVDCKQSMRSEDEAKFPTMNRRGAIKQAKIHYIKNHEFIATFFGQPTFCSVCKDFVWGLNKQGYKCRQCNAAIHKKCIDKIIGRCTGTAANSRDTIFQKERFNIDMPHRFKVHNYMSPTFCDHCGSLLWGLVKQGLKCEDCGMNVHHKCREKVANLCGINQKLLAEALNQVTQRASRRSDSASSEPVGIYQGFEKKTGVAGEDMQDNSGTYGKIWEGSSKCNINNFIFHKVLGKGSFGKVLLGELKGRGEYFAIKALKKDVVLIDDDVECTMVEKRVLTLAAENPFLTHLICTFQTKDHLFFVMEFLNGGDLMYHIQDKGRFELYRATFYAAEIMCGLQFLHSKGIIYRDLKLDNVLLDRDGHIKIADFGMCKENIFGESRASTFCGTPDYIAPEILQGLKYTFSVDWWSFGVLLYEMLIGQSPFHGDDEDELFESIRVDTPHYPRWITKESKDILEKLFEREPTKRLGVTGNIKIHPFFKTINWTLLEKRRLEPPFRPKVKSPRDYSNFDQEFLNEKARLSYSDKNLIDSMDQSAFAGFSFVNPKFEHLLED
UniProt O75569: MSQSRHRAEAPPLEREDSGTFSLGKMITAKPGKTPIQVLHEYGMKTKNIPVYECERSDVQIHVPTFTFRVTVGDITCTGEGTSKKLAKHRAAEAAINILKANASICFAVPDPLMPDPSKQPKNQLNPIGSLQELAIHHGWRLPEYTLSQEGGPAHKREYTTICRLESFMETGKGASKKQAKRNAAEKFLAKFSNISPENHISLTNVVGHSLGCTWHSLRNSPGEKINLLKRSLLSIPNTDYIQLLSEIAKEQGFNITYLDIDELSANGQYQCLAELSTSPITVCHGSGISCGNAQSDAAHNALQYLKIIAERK
UniProt Q13131: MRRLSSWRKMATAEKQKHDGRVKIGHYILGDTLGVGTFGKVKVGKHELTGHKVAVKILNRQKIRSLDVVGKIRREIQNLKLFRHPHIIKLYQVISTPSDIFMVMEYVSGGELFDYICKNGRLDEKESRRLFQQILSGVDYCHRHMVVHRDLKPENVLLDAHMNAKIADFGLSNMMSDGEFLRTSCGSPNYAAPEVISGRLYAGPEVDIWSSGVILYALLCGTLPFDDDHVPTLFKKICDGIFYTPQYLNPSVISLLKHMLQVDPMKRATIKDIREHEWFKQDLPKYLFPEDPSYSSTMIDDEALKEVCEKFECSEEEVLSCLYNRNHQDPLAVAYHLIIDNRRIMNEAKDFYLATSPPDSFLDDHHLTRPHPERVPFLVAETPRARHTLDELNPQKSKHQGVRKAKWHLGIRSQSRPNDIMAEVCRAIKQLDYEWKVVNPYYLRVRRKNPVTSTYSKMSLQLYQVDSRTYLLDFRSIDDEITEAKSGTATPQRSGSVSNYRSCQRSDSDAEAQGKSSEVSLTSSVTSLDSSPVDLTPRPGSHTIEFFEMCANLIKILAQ
UniProt Q9BZL6: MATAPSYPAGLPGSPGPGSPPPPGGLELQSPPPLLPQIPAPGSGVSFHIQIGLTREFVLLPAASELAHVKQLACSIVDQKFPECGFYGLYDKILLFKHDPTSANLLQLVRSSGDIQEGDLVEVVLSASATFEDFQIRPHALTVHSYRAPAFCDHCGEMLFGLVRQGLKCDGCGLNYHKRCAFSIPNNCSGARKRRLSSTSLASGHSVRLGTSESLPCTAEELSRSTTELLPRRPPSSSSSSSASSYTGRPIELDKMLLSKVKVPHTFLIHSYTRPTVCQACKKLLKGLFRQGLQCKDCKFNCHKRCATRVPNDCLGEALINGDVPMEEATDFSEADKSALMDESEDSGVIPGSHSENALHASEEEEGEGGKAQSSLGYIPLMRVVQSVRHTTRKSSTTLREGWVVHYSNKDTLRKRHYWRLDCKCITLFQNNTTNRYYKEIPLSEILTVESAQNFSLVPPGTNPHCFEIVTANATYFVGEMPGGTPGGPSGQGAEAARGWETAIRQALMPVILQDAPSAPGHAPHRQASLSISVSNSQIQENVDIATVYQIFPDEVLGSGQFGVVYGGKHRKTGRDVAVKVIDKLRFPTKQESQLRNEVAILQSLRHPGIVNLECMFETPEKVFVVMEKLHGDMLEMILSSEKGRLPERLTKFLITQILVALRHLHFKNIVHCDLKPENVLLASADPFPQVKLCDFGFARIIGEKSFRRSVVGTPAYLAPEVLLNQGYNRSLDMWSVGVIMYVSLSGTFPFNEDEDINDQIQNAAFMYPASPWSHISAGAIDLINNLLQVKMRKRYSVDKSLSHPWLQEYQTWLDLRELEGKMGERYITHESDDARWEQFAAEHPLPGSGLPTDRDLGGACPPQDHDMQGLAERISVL
UniProt P11908: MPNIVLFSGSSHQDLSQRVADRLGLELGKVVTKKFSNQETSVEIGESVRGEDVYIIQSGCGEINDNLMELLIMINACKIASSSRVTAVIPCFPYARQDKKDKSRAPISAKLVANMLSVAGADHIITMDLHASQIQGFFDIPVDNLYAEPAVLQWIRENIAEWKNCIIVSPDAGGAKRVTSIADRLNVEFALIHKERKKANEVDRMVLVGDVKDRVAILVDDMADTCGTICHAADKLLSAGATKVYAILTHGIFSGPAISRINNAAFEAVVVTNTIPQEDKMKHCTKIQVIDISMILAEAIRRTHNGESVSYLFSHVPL
UniProt P31323, whole entry: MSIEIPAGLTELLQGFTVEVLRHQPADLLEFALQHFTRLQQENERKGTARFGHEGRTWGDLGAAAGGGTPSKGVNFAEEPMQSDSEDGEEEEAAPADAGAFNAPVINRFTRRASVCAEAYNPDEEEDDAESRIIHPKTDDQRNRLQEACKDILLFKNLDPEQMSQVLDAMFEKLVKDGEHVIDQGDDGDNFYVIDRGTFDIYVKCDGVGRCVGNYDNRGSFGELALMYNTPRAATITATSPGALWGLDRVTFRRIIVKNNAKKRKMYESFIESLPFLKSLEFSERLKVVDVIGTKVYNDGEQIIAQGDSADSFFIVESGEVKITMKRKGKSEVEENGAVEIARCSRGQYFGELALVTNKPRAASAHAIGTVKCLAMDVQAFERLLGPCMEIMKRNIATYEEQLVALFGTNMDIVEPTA
UniProt Q9BRX8: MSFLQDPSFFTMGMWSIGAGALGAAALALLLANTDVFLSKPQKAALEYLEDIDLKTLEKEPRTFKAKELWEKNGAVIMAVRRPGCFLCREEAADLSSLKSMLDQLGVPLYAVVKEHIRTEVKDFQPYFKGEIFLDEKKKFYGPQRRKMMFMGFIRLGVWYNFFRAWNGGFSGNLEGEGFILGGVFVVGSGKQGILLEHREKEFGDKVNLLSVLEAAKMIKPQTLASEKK
UniProt O43741: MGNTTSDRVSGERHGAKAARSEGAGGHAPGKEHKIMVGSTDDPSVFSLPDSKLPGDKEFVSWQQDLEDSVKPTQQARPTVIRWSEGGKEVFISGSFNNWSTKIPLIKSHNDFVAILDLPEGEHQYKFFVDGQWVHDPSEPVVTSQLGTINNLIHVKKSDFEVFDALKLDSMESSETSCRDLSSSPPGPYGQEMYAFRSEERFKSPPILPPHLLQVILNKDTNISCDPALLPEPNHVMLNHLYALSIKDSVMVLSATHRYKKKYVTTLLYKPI
UniProt Q8NDX1: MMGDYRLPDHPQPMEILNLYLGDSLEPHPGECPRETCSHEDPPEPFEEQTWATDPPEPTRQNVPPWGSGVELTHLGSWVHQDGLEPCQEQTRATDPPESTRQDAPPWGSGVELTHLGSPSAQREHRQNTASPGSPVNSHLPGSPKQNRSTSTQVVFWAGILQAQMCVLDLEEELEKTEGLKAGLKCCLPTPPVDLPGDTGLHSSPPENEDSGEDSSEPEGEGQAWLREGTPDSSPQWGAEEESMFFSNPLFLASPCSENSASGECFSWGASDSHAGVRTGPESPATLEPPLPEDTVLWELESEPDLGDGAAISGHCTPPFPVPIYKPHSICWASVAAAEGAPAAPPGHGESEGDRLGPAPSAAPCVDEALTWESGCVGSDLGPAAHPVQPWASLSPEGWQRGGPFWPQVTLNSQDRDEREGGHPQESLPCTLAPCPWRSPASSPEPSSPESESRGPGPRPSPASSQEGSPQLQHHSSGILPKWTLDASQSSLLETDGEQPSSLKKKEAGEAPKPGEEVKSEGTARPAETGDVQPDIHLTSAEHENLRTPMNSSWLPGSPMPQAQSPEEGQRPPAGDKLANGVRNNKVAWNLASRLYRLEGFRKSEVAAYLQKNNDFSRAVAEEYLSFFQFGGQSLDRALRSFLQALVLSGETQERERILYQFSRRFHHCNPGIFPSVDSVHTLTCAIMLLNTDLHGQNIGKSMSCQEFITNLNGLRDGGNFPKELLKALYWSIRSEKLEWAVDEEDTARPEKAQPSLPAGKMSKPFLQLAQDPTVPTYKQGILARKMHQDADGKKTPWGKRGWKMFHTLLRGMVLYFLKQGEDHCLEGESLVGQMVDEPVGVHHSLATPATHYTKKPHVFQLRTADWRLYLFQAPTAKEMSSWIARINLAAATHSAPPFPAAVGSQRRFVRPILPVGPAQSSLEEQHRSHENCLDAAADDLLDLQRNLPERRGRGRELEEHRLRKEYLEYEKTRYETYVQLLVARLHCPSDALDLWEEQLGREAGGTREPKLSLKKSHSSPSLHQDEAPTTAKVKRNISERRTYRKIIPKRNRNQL
UniProt Q6P2P2: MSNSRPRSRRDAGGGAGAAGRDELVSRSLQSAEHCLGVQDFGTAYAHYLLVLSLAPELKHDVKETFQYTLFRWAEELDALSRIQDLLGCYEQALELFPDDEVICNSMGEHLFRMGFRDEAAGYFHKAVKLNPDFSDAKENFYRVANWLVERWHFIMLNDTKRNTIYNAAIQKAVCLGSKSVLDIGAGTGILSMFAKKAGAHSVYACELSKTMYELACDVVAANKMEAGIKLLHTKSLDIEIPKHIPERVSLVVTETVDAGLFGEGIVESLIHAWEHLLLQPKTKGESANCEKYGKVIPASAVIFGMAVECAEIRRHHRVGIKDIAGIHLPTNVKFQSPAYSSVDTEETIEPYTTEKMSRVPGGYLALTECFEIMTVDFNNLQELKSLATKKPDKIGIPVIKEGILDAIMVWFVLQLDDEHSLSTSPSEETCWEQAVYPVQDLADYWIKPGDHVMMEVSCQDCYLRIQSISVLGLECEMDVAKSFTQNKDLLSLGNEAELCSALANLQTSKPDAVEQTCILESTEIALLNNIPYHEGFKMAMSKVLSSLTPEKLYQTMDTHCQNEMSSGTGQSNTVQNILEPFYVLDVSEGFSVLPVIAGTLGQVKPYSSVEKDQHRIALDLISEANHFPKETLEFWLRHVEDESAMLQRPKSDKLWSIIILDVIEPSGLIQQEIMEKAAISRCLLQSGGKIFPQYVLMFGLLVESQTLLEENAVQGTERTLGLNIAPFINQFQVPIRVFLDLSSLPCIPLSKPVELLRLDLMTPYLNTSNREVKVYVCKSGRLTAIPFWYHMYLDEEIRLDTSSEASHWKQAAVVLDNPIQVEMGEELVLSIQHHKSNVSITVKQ

Compound: Cc1cc(ccc1-c1ccccc1)C(=O)N1CCCN(CC1)C(=O)CCl [compound 10]
Assay: probe-labelled cysteine peptide fold change vs DMSO (competition) (log2 fold change); higher = less target engagement (more negative = stronger competition)
Conditions: THP-1, incubation time: 4 h
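Also: competitive profiling in live THP-1 cells: cysteine peptides tagged with an iodoacetamide desthiobiotin (IA-DTB) probe, intensity after compound treatment relative to DMSO-treated cells.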

Target	probe-labelled cysteine peptide fold change (10 µM)	probe-labelled cysteine peptide fold change (50 µM)
PRKDC_P78527_1364_DLCNTHLMR (UniProt P78527)	-0.0526	-0.0393
PRKCB_P05771_70+71_QGFQCQVCCFVVHK (UniProt P05771)	-0.397	-0.496
PRKDC_P78527_223_LPVLAGCLK (UniProt P78527)	0.0967	-0.0516
PRKCD_Q05655_172_NHEFIATFFGQPTFCSVCK (UniProt Q05655)	-0.307	-0.424
PRKRA_O75569_77_VTVGDITCTGEGTSKK (UniProt O75569)	0.141	-0.288
PRPF3_O43395_37_VLGFSEPTVVTAALNCVGK (UniProt O43395)	0.233	-0.0316
PRKAA1_Q13131_425_SQSRPNDIMAEVCR (UniProt Q13131)	-0.0282	-0.0428
PRKCD_Q05655_175_NHEFIATFFGQPTFCSVCK (UniProt Q05655)	-0.67	-0.472
PRKD2_Q9BZL6_180+188_CAFSIPNNCSGAR (UniProt Q9BZL6)	-0.223	-0.37
PRPS2_P11908_230_DRVAILVDDMADTCGTICHAADK (UniProt P11908)	0.48	-0.309
PRKAR2B_P31323_116_RASVCAEAYNPDEEEDDAESR (UniProt P31323)	-0.353	0.149
PRKDC_P78527_630_DFSAFINLVEFCR (UniProt P78527)	0.137	0.157
PRXL2A_Q9BRX8_88_RPGCFLCR (UniProt Q9BRX8)	-2.04	-2.18
PRKDC_P78527_1135_SLGTIQQCCDAIDHLCR (UniProt P78527)	0.172	0.263
PRKDC_P78527_1176_WLLAHCGRPQTECR (UniProt P78527)	-0.119	0.102
PRKAB2_O43741_225_DTNISCDPALLPEPNHVMLNHLYALSIK (UniProt O43741)	-0.173	-0.299
PSD4_Q8NDX1_988_LHCPSDALDLWEEQLGR (UniProt Q8NDX1)	0.0622	0.064
PSD4_Q8NDX1_32_LPDHPQPMEILNLYLGDSLEPHPGECPR (UniProt Q8NDX1)	-0.0723	0.075
PRRC2C_Q9Y520_2340_STTTSDPPNICK (UniProt Q9Y520)	-0.229	-0.462
PRMT9_Q6P2P2_476_IQSISVLGLECEMDVAK (UniProt Q6P2P2)	0.196	0.065
PRPS2_P11908_165_NCIIVSPDAGGAK (UniProt P11908)	0.241	0.0546
PRKDC_P78527_1128_SLGTIQQCCDAIDHLCR (UniProt P78527)	0.0881	-0.193

Rewritten bar-delimited: part of the list above.
Target | probe-labelled cysteine peptide fold change (10 µM) | probe-labelled cysteine peptide fold change (50 µM)
PRKCB_P05771_70+71_QGFQCQVCCFVVHK (UniProt P05771) | -0.397 | -0.496
PRKRA_O75569_77_VTVGDITCTGEGTSKK (UniProt O75569) | 0.141 | -0.288
PRKD2_Q9BZL6_180+188_CAFSIPNNCSGAR (UniProt Q9BZL6) | -0.223 | -0.37
PRKAR2B_P31323_116_RASVCAEAYNPDEEEDDAESR (UniProt P31323) | -0.353 | 0.149
PRXL2A_Q9BRX8_88_RPGCFLCR (UniProt Q9BRX8) | -2.04 | -2.18
PRKDC_P78527_1176_WLLAHCGRPQTECR (UniProt P78527) | -0.119 | 0.102
